No constants are given. Whether binding was seen depends on the method and setting. In cells and extracts the contact can be indirect. These calls come from enrichment with a bait or labelling near it, and not all partners need be listed. Sequences can lack the tags named with a protein.
Target: T1, 3xFLAG-tagged C16orf72 (human) (UniProt Q14CZ0)
T1 sequence: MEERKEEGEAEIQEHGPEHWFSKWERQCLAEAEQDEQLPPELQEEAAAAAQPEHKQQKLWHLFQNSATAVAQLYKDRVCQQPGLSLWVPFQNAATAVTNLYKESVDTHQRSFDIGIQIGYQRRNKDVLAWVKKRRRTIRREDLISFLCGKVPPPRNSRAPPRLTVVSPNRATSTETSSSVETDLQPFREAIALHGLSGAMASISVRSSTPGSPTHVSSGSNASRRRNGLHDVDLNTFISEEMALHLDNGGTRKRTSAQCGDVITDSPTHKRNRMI
Assay: affinity purification with mass spectrometry

The chains behind the UniProt entries cited, without tags or fusion partners.
UniProt Q7Z6Z7: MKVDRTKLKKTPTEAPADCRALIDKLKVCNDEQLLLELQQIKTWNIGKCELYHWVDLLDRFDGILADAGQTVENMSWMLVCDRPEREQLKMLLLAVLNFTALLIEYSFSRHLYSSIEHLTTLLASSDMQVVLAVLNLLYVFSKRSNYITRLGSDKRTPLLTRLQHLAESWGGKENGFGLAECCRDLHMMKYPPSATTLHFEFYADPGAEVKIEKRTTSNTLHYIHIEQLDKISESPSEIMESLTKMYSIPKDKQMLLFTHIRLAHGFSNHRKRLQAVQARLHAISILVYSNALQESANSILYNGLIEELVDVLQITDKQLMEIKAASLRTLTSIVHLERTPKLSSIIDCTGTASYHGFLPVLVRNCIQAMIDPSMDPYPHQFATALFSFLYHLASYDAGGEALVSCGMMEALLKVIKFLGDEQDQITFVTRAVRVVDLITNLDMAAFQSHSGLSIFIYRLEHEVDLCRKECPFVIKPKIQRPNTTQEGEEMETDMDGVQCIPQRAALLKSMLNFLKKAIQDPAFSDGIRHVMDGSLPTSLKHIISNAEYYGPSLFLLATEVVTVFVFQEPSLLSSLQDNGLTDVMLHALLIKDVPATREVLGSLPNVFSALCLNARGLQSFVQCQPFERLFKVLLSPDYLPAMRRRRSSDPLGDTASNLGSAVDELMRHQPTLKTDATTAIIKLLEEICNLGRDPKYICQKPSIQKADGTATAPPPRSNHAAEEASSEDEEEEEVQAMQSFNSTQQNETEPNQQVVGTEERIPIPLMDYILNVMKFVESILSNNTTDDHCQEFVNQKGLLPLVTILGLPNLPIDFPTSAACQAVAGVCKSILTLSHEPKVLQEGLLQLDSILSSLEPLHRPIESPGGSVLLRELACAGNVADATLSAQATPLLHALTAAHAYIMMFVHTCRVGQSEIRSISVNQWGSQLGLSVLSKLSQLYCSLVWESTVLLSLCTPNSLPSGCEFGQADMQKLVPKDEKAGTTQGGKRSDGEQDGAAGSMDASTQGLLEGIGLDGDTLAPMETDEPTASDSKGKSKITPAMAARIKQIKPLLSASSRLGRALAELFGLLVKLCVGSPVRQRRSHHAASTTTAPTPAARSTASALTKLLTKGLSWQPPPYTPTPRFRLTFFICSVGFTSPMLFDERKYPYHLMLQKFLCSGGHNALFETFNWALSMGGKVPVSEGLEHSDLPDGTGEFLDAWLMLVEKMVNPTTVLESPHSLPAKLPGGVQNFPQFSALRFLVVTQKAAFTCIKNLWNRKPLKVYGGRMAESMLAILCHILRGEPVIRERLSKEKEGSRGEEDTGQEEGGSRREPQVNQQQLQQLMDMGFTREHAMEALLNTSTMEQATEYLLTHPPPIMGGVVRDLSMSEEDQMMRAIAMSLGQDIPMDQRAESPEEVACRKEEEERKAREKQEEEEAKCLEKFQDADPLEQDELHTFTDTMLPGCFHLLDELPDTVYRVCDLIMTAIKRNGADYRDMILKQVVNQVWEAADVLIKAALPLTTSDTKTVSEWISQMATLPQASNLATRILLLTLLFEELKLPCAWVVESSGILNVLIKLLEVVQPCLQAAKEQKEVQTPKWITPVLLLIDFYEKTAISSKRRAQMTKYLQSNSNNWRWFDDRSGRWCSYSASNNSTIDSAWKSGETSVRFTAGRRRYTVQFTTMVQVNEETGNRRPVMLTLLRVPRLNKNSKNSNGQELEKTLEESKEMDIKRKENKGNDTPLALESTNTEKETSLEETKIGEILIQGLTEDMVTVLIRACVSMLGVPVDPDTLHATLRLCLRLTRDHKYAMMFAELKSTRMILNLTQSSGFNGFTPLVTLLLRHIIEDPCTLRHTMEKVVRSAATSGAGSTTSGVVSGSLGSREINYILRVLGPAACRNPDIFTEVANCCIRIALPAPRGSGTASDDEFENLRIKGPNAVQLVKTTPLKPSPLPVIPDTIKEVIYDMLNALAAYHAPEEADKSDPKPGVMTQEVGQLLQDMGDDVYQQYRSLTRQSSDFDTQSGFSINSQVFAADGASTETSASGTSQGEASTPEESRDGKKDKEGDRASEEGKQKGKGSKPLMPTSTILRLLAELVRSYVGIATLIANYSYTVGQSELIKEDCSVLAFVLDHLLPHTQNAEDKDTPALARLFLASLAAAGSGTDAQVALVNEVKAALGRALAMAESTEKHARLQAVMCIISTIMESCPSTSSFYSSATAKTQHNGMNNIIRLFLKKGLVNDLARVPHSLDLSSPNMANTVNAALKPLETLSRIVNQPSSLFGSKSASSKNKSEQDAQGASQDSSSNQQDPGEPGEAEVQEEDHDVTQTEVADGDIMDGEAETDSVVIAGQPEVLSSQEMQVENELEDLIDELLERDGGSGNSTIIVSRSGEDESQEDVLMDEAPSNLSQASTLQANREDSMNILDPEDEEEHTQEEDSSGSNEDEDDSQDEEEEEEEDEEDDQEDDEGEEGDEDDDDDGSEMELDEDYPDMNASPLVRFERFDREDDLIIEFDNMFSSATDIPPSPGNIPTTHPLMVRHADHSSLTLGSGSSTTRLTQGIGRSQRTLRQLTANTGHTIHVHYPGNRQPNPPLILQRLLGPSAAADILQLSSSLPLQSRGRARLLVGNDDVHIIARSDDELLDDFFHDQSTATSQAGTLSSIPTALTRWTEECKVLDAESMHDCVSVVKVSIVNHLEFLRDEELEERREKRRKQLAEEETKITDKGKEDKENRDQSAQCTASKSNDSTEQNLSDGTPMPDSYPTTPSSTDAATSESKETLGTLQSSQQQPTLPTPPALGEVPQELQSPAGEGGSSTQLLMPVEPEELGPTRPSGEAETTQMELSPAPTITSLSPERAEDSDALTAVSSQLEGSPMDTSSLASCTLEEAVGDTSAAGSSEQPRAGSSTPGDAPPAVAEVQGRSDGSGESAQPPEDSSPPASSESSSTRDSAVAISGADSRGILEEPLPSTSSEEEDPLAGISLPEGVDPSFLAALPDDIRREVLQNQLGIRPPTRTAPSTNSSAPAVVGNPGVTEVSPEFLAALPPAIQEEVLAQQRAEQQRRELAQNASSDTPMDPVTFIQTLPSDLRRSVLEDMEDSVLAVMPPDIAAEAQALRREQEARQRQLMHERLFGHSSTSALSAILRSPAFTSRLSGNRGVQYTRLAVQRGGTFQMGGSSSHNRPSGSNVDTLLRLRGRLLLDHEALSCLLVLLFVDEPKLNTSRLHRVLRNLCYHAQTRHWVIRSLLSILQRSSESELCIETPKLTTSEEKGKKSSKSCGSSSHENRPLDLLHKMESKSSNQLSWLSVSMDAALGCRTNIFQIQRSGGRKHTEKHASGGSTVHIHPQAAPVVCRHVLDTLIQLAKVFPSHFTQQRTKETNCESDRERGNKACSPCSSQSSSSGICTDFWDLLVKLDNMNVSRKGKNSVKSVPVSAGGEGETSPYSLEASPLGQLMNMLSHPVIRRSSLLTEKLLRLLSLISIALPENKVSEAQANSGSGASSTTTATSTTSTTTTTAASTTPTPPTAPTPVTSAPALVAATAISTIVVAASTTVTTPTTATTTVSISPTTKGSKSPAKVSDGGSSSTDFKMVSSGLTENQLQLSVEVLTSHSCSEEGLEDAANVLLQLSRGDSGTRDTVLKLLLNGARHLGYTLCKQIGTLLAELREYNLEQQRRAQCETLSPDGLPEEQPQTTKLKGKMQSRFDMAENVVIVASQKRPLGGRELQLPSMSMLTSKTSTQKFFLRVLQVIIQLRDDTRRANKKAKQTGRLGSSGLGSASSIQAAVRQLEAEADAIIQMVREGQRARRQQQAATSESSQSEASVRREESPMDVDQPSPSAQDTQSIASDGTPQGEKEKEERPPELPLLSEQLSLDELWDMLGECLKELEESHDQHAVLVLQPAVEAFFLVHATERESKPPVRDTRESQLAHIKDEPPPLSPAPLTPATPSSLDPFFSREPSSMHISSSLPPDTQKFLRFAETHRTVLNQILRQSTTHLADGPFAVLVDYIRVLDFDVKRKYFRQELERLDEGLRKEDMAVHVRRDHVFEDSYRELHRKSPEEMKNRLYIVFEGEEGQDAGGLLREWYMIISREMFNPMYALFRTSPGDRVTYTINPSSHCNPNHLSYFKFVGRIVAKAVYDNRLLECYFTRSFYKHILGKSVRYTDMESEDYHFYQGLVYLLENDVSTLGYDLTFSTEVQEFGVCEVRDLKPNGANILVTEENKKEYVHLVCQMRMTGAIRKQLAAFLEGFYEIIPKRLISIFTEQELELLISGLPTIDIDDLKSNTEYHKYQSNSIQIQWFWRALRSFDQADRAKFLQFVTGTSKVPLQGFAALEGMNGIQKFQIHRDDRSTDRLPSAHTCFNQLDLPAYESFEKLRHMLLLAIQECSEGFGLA

binding: binds
Substance: Hect ubiquitin E3 ligase HUWE1 (from UniProt Q7Z6Z7 1-4374) (enzyme)
